This note sets out measurements from PMC6458997, “Deciphering the Molecular Mechanism Underpinning Phage Arbitrium Communication Systems” (Molecular Cell, 2019).

No constants are given. Whether binding was seen depends on the method and setting.

Assay [1] concerns the target T1, SPbeta AimR (arbitrium peptide receptor / transcription factor AimR of Bacillus subtilis phage SPbeta), full length (Bacillus subtilis SPbeta phage) (UniProt O64094).
T1 sequence: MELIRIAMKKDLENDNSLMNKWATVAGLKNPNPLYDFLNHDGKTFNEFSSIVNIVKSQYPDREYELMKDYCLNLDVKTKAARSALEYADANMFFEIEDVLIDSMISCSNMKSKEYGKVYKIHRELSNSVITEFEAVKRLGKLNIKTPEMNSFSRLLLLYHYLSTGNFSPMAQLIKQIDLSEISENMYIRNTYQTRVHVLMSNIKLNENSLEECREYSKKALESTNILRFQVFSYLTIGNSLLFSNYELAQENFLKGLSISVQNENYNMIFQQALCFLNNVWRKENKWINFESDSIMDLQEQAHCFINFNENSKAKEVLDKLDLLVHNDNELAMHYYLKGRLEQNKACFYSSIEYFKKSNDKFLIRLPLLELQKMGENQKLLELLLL
Put plainly: thermal shift assay (differential scanning fluorimetry); 20 μM protein, 5x Sypro Orange, 20 mM Tris pH 8, 250 mM NaCl, heated 20 to 85°C; apparent Kd from 10 peptide concentrations from 0 to 2 μM, fitted to a single binding site per monomer; both purified.

Assay [2] addresses T2, SPbeta AimR N202A mutant (Bacillus subtilis SPbeta phage) (UniProt O64094).
T2 sequence: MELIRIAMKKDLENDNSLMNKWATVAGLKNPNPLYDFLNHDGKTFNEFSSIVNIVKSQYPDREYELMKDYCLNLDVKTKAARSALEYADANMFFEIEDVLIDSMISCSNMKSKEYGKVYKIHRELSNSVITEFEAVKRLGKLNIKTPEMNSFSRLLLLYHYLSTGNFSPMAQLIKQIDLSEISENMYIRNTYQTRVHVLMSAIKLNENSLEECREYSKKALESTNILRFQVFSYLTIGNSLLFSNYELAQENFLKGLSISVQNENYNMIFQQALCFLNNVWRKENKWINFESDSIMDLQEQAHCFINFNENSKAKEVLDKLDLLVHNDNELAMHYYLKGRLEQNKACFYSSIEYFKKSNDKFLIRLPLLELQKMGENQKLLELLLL
The assay is described as above.

For assay [3], the target named is T3, SPbeta AimR D360A mutant (Bacillus subtilis SPbeta phage) (UniProt O64094).
T3 sequence: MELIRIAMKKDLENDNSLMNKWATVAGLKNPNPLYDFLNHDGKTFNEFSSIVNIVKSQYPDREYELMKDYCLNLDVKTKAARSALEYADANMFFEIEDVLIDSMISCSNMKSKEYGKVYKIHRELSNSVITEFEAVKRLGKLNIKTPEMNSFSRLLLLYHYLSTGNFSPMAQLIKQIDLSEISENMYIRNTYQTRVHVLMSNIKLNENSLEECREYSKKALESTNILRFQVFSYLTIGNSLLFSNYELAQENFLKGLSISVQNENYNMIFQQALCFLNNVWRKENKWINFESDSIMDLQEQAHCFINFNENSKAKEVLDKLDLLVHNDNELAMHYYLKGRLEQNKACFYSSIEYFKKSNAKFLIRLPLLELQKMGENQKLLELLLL
The assay is described as above.

Assay [4] addresses SPbeta AimR lacking the TPR C-terminal subdomain (stop codon at position 294) (Bacillus subtilis SPbeta phage) (UniProt O64094). Put plainly: SEC; size-exclusion chromatography analysis of AimR^ΔC-ter in solution (Figure S2B); both purified.

B1: phi3T AimP arbitrium peptide SAIRGA (peptide)
peptide: SAIRGA
For B1, the binding result in assay [1] is reported as “no binding”.

B2: SPbeta AimP arbitrium peptide GMPRGA (peptide)
peptide: GMPRGA
In the case of B2, the binding result in assay [2] and in assay [3] was “no binding” each time.

B3: SPbeta AimR lacking the TPR C-terminal subdomain (stop codon at position 294) (domain or fragment, UniProt O64094 1-293)
chain: MELIRIAMKKDLENDNSLMNKWATVAGLKNPNPLYDFLNHDGKTFNEFSSIVNIVKSQYPDREYELMKDYCLNLDVKTKAARSALEYADANMFFEIEDVLIDSMISCSNMKSKEYGKVYKIHRELSNSVITEFEAVKRLGKLNIKTPEMNSFSRLLLLYHYLSTGNFSPMAQLIKQIDLSEISENMYIRNTYQTRVHVLMSNIKLNENSLEECREYSKKALESTNILRFQVFSYLTIGNSLLFSNYELAQENFLKGLSISVQNENYNMIFQQALCFLNNVWRKENKWINFESD
On to B3, for which, in assay [4], the binding entry is on record as “no binding”.
